The list does not hold the whole screen: it gathers tests that were run many times, whatever their T/C, doses with no T/C, and many T/C values between a quarter and a half above the control. Other doses and runs of a compound stand elsewhere. T/C is the treated group as % of the vehicle group. Some entries give survivors of the animals treated and no T/C: the source files T/C as zero there, which appears to mark a toxic dose or a test without result, not a measured value. Some survivor counts are full or nearly so, which does not show that the dose was tolerated: survival well below the control is almost never listed, so the zero probably covers shortened survival too. Survivors were counted at the toxicity check, usually on the fifth day, unless a day is given; later deaths do not show. Schedule codes are those of the source, read here as Q, the interval in days (D) or hours (H), X, the number of doses. For survival time, this PubChem deposit counts one and a half times the control or more as active, and values a quarter to a half above the control carry no call in these data; other NCI protocols may use other cut-offs.
Test system: AKR/Lw mice, AKR lymphoma ip, median survival T/C
Assay: NCI In Vivo Anticancer Drug Screen. Data for tumor model Lymphoma AKR (Transplanted) (intraperitoneal) in AKR/Lw mice
Settings: T/C endpoint: median survival time, higher T/C = longer survival
Protocol: The antitumor activity of compounds was measured in mice bearing transplantable tumors. Survival or tumor size were measured and the results are expressed as the measurement made in the treated group (T) divided by the measurement made in the vehicle treated control group (C). The tumor model used in this assay is Lymphoma AKR (Transplanted) (intraperitoneal) in AKR/Lw mice

`COc1cc([C@@H]2c3cc4c(cc3[C@H](O)[C@H]3COC(=O)[C@@H]23)OCO4)cc(OC)c1OC` was tested, and the survivor count (dose: 24.0 mg/kg/injection, schedule: Q01DX009 (ip), vehicle: Klucel (hydroxypropylcellulose) (HPC)) was 10 of 10, the survivor count (dose: 48.0 mg/kg/injection, schedule: Q01DX009 (ip), vehicle: Klucel (hydroxypropylcellulose) (HPC)) was 10 of 10 and the survivor count (dose: 96.0 mg/kg/injection, schedule: Q01DX009 (ip), vehicle: Klucel (hydroxypropylcellulose) (HPC)) was 5 of 10.
`CC(=O)N1C(=O)/C(=C\c2cc3c(cc2Br)OCO3)c2cc3c(cc21)OCO3` was tested, and the T/C (dose: 24.0 mg/kg/injection, schedule: Q01DX001 (ip), vehicle: water) was 141 % of control, the T/C (dose: 48.0 mg/kg/injection, schedule: Q01DX001 (ip), vehicle: water) was 145 % of control and the survivor count (dose: 96.0 mg/kg/injection, schedule: Q01DX001 (ip), vehicle: water) was 8 of 10.

From PubChem BioAssay AID190 (DTP/NCI, 2004)
